PMC3628100
Results are given in words; binding and its absence hold for the method and conditions named. In cells and extracts the contact can be indirect. Some entries that bind do so weakly or less than the wild type.

Molecular target: T1, SREBP1 (sterol regulatory element binding protein 1), endogenous in rat cortical neurons (rat (endogenous in primary cortical neurons)) (UniProt P56720)
T1 sequence: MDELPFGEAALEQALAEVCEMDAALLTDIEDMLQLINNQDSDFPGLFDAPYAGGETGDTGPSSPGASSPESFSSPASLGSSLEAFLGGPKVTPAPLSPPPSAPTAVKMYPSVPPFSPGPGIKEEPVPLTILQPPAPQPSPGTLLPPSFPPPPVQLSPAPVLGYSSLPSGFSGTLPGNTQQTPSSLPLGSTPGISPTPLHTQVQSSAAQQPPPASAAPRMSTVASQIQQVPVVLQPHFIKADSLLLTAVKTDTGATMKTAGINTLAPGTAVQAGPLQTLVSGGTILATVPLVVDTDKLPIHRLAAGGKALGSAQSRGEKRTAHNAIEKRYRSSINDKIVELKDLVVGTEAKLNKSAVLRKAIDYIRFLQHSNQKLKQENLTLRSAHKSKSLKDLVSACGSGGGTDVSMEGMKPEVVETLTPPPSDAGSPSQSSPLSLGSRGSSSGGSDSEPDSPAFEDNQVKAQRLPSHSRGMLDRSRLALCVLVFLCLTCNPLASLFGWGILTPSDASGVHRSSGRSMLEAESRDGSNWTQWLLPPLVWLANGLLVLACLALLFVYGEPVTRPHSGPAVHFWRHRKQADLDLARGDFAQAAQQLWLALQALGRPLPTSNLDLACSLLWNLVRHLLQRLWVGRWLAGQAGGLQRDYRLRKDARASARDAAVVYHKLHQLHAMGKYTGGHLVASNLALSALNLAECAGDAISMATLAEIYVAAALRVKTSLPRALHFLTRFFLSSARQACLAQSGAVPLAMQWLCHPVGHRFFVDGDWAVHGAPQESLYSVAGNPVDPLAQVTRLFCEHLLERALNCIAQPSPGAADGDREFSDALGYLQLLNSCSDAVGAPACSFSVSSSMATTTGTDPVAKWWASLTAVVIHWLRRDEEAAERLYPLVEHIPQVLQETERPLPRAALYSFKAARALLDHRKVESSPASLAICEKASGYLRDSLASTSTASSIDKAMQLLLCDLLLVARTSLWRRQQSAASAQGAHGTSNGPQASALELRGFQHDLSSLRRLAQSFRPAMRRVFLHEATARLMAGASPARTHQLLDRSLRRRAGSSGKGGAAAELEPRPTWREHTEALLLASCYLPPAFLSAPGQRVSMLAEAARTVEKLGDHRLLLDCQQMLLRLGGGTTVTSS
Experiment: co-IP; lysates of primary rat cortical neurons (control or virus-infected), 500 µg protein, precipitated with 2 µg anti-N-terminus SREBP1 antibody H-160 overnight at 4°C, protein A-sepharose; 25 mM Tris pH 6.8, 0.5% Triton X-100, 0.5% Nonidet P-40; Western blot

B1: SCAP (SREBP-cleavage-activating protein), endogenous in rat cortical neurons (protein, UniProt A2RRU4 1-1276)
chain: MTLTERLREKISQAFYNHGLLCASYPIPIILFTGLCILACCYPLLKLPLPGTGPVEFSTPVKGYSPPPADSDHKQGEPSEQPEWYVGAPVAYIQQIFVKSSVSPWHRNLLAVDVFRSPLSRAFQLVEEIRNHVLRDSSGTKSLEEVCLQVTDLLPGLRKLRSLLPEHGCLLLSPGNFWQNDWERFHADPDIIGTIHQHEPKTLQTSATLKDLLFGVPGKYSGVSLYTRKRMVSYTITLVFQRYHAKFLSSLRARLMLLHPSPNCSLRAENLVHVHFKEEIGIAELIPLVTTYIILFAYIYFSTRKIDMVKSKWGLALAAVVTVLSSLLMSVGLCTLFGLTPTLNGGEIFPYLVVVIGLENVLVLTKSVVSTPVDLEVKLRIAQGLSSESWSIMKNVATELGIILIGYFTLVPAIQEFCLFAVVGLVSDFFLQMLFFTTVLSIDIRRMELADLNKRLPPESCLPSAKPVGRPARYERQLAVRPSTPHTITLQPSSFRNLRLPKRLRVIYFLARTRLAQRLIMAGTVVWIGILVYTDPAGLRTYLAAQVTEQSPLGEGSLGPMPVPSGVLPASHPDPAFSIFPPDAPKLPENQTLPGELPEHAVPAEGVQDSRAPEVTWGPEDEELWRKLSFRHWPTLFNYYNITLAKRYISLLPVIPVTLHLNPREALEGRHPQDGRTAWAPPEPLPAGLWETGPKGPGGTQTHGDITLYKVAALGLAAGIVLVLLLLCLYRVLCPRNYGQPGGGAGRRRRGELPCDDYGYAPPETEIVPLVLRGHLMDIECLASDGMLLVSCCLAGQVCVWDAQTGDCLTRIPRPGPRRDSCGGGAFEAQENWERLSDGGKASPEEPGDSPPLRRRPRGPPPPSLFGDQPDLTCLIDTNFSVQLPPEPTQPEPRHRAGCGRSRDSGYDFSRLVQRVYQEEGLAAVHMSALRPPSPGPPLPQASQEEGTAPEKGSPPLAWAPSTAGSIWSLELQGSLIVVGRSSGRLEVWDAIEGVLCCSNEEISSGITALVFLDRRIVAARLNGSLDFFSLETHTSLSPLQFRGTPGRGSSPSSPVYSSSNTVACHLTHTVPCAHQKPITALRAAAGRLVTGSQDHTLRVFRLEDSCCLFTLQGHSGAITTVYIDQTMVLASGGQDGAICLWDVLTGSRVSHTFAHRGDVTSLTCTTSCVISSGLDDFINIWDRSTGIKLYSIQQDLGCGASLGVISDNLLVTGGQGCVSFWDLNYGDLLQTVYLGKNSEAQPARQILVLDNAAIVCNFGSELSLVYVPSVLEKLD
binding: binds
